Among the data in patent EP4695306A2 are binding values, retold here.

Protein sequences, listed by entry. Tags and fused reporters are not part of them. Lines headed by an entry give the natural chain unless they say otherwise; changes in a name come on top.
UniProt P01870: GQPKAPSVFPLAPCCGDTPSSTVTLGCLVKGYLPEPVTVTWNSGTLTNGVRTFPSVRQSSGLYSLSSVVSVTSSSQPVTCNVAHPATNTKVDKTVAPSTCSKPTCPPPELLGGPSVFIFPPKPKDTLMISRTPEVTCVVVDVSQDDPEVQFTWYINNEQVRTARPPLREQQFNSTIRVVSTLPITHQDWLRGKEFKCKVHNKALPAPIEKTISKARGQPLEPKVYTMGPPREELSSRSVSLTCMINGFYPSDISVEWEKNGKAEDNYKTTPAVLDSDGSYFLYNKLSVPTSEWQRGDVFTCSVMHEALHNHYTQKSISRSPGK

Results are given in words; binding and its absence hold for the method and conditions named. Some entries that bind do so weakly or less than the wild type. Sequences can lack the tags named with a protein.

The test has as its target rabbit IgG Fc fragment (Oryctolagus cuniculus) (UniProt P01870). The test is described as follows: cryo-EM of the complex.

B1: anti-rabbit IgG Fc nanobody TP897 (VHH)
VHH: QVQLVESGGGLVQAGDSLRLSCVASGRSLDGATMRWYRQAPGKEREFVAGIFWDEIGTEYADTAKGRFTISRDNAKNTIYLQMTNLRSEDTAMYYCNGLVFGGEYWGQGTQVTVSS
Consider B1, for which the binding entry was “binds”.
